Measured values: US10912787B2, “Use of N-acetylglucosamine and derivatives thereof to treat muscle disorders” (PUREPHARM INC., priority 2017, dated 2021)
At least one compound was matched to its structure with a doubt left.

System: C2C12 cells
Test: Statin-reduced myogenesis of C2C12 cells with or without Simvastatin
Assay type: cell-based, murine
Details: C2C12, 44 hours, with Simvastatin; preliminary data not shown
Description: It is estimated that 10-15% of individuals who take statins-related compounds develop statin-related muscle adverse effects, ranging from mild myalgia to more severed muscle symptoms while the mechanism of statin-induced myopathy remains undetermined. In vitro myogenesis, statins-related compounds reduce in vitro myogenesis and stable adhesion of myotubes. Thus, it was examined whether GlcNAc treatment has any significant effect on the statin-reduced myogenesis. Myogenesis of murine myoblast cells, C2C12 cells was induced by replacing the medium from growing medium to differentiation medium as above DMEM in the presence or absence of different doses of N-acetylglucosamine (GlcNAc) with or without Simvastatin for 44 hours. Cells were then fixed in 3.8% paraformaldehyde containing phosphate buffered saline (PBS) for 15 min. Then cells were permeabilized by PBS-0.25% Triton X100 for 5 min. After washed with PBS, the cells were incubated with anti-MHC antibody (Clone MF-20, 2.5 μg/ml) in the blocking agents (Vectors laboratories) for an hour, followed by anti-mouse antibody labelled with Alex 488. Then nuclei of the cells were stained with DAPI. Fluorescent images were taken through 20× objectives by using Queorum WaveFX spinning Disc confocal system.

CCC(C)(C)C(=O)O[C@H]1C[C@@H](C)C=C2C=C[C@H](C)[C@H](CC[C@@H]3C[C@@H](O)CC(=O)O3)[C@H]21 [Simvastatin, reference compound]
adhesion of myotubes: did not adhere tightly to the dish
